Assay results as given in patent US4491631A, “Assay method for lipid component, assay composition, and process for production of enzyme used therefor” (Toyo Jozo Kabushiki Kaisha, priority 1981, dated 1985).

System: acyl-CoA synthetase, acyl-CoA oxidase and multi-active enzyme (β-oxidation cycle)
Experiment: Quantitative determination of various fatty acids with the composition for assay (reduced NAD, 340 nm)
Format: biochemical
Details: 25 μl sample of fatty acid (0.05 μmole) in 3.00 ml composition, 37° C., 5 minutes

SMILES	OD340nm
CCCCCCCCCC(=O)O [Capric acid]	0.267
CCCCCC(=O)O [Caproic acid]	0.089
CCCCCCCC(=O)O [Caprylic acid]	0.175
CCCCCCCCCCCC(=O)O [Lauric acid]	0.356
CC/C=C\C/C=C\C/C=C\CCCCCCCC(=O)O [Linolenic acid]	0.630
CCCCC/C=C\C/C=C\CCCCCCCC(=O)O [Linolic acid]	0.619
CCCCCCCCCCCCCC(=O)O [Myristic acid]	0.444
CCCCCCCC/C=C\CCCCCCCC(=O)O [Oleic acid]	0.628
CCCCCCCCCCCCCCCC(=O)O [Palmitic acid]	0.530
CCCCCC/C=C\CCCCCCCC(=O)O [Palmitoleic acid]	0.529
CCCCCCCCCCCCCCCCCC(=O)O [Stearic acid]	0.622
